Protein sequences, listed by entry. Tags and fused reporters are not part of them.
UniProt P11712, whole entry: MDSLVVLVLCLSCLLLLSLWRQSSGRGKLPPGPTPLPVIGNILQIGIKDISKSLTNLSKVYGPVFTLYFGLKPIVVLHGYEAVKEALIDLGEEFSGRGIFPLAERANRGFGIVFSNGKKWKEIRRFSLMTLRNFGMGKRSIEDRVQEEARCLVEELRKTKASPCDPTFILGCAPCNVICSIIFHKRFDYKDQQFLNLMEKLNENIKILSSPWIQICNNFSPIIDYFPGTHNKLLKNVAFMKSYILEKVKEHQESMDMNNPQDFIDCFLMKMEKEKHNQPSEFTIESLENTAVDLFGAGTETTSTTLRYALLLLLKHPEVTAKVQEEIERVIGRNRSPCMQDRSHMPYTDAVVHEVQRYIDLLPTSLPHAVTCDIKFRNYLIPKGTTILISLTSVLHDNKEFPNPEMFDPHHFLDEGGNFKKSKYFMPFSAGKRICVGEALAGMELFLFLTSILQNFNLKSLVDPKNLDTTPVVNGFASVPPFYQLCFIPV

In ChEMBL document CHEMBL4842350, “Discovery of a Novel Bromodomain and Extra Terminal Domain (BET) Protein Inhibitor, I-BET282E, Suitable for Clinical Progression” (J Med Chem, 2021):

Molecular target: Cytochrome P450 2C9 (Homo sapiens, UniProt P11712)

For `CCNC(=O)C[C@@H]1N=C(c2ccc(Cl)cc2)c2cc(OC)ccc2-n2c(C)nnc21` [MOLIBRESIB], the IC50 was > 50 µM.
